# Measurements published in PubChem BioAssay AID2662 (National Center for Advancing Translational Sciences (NCATS), 2010).
# By UniProt entry, the sequences of proteins in these tests, tags left out.
# UniProt Q03164, whole entry, looked up: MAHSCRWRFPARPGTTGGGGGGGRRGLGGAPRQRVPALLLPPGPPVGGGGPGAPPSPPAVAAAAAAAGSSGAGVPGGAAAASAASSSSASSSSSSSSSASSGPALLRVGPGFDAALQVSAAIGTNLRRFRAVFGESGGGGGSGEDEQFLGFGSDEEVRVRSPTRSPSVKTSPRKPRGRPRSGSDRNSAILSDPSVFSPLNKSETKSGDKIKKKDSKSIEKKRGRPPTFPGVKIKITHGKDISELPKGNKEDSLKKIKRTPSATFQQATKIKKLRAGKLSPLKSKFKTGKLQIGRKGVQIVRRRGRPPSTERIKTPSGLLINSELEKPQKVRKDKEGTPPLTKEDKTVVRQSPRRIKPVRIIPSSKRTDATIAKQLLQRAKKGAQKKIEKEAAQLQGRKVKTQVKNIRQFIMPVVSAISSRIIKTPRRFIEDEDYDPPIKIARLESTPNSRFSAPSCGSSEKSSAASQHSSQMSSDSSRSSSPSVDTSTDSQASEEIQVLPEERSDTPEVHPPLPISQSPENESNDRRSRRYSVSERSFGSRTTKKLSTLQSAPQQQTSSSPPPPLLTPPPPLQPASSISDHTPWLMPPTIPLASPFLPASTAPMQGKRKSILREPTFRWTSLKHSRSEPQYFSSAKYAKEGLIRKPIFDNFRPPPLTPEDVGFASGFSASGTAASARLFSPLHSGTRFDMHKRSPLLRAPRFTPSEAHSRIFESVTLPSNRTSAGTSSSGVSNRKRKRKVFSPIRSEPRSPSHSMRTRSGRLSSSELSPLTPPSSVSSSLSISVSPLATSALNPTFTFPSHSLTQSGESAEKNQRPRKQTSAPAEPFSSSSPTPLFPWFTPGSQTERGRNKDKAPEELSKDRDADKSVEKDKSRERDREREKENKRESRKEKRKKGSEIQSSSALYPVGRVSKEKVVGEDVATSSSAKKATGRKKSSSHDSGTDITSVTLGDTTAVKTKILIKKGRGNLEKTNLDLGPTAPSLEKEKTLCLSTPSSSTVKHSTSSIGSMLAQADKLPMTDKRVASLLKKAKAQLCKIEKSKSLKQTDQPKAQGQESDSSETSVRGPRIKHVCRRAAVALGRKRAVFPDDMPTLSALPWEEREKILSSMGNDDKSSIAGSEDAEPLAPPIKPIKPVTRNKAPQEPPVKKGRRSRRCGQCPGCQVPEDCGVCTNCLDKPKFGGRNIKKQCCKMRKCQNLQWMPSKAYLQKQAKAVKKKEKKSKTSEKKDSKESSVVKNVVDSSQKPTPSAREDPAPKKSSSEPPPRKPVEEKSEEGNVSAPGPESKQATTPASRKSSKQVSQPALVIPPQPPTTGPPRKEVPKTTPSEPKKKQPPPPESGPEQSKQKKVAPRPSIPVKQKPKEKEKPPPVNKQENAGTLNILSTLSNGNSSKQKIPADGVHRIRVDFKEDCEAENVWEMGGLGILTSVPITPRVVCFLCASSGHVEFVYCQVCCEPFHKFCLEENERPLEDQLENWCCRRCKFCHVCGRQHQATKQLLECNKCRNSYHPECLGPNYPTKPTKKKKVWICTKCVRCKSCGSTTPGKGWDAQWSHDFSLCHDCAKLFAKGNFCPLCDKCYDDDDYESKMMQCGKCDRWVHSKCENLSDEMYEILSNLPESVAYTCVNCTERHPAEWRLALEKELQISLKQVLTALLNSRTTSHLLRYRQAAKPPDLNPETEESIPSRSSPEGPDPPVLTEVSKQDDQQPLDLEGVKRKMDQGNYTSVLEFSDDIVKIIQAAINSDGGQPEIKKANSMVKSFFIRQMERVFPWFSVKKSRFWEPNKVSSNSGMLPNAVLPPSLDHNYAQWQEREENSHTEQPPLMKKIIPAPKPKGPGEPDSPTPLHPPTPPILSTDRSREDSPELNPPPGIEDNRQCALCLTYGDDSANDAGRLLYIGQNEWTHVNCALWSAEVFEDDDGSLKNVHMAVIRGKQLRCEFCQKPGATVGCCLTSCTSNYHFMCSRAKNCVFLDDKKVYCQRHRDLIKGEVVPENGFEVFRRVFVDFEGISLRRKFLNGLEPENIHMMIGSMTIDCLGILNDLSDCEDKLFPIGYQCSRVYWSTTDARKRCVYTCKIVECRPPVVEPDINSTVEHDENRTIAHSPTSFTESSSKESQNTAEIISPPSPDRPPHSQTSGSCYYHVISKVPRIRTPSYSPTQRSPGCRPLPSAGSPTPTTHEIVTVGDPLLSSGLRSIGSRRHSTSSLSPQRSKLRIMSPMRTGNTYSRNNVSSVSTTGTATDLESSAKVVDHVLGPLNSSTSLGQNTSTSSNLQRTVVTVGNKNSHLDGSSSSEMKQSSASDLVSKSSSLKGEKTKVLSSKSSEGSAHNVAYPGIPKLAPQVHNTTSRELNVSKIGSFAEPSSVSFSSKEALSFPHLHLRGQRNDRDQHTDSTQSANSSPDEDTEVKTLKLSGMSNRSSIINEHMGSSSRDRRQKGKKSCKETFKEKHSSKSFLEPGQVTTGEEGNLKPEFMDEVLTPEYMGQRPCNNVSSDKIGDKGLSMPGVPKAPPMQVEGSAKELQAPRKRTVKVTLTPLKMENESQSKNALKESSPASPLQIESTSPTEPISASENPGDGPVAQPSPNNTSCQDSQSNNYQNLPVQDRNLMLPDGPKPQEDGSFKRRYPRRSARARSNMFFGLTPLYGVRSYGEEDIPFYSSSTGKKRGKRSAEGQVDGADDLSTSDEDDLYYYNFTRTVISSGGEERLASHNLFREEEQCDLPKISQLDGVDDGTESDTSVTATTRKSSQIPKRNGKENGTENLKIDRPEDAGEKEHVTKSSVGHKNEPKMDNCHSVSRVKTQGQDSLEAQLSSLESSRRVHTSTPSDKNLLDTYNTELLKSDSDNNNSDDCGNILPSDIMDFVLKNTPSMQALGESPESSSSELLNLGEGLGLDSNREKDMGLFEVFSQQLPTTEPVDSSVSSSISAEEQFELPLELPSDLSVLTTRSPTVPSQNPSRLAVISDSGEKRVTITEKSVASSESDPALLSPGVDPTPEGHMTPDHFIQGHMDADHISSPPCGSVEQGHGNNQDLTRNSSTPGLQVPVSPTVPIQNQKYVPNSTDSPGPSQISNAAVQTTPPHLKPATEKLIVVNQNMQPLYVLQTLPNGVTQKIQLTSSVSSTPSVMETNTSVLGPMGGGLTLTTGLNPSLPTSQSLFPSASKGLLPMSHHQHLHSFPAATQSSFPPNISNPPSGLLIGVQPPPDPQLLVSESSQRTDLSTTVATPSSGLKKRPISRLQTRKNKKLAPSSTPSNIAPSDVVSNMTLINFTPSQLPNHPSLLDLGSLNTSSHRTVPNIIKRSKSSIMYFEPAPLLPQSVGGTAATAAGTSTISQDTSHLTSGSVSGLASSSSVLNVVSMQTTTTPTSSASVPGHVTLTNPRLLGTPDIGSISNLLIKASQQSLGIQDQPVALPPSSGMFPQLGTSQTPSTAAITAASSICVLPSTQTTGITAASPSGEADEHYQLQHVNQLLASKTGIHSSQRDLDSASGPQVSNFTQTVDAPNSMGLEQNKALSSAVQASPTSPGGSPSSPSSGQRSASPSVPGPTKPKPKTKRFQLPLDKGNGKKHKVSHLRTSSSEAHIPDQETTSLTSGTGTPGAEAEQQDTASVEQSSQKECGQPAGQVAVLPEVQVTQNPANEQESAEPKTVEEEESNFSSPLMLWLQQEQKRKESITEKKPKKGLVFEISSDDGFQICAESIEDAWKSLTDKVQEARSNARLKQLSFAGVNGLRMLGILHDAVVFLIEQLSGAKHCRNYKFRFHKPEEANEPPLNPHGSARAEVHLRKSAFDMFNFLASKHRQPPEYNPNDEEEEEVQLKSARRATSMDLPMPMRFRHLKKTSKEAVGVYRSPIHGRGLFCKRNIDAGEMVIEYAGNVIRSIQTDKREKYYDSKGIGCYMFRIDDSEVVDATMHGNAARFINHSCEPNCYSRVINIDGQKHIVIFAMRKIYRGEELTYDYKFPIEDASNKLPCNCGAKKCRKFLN
# Among all 290,000 compounds or so, about 110 (0.038%) were called active. This list was built around the results that the source calls inconclusive (neither active nor inactive); the mix of calls is not that of the screen. Calls follow the shape of the dose curve; as a rule, active = well fitted inhibition curve with a large enough effect in the polarisation, with a control signal flat (not every such curve was filed as active); inconclusive = small, poorly fitted or top-dose-only effect, or effect the other way, or a change in a side signal; inactive = no such curve, though single readings can be large or run the other way; the % refers to the polarisation. Where the call is inconclusive, the potency comes from a doubtful curve fit. “Side channel” marks fits to a control or component signal instead of the main read-out.
# Target: Histone-lysine N-methyltransferase 2A (Homo sapiens) (UniProt Q03164)
# Test: qHTS Fluorescence Polarization Assay for Inhibitors of MLL CXXC domain - DNA interaction
# Settings: MLL-CXXC / FITC-HOXA9 DNA fluorescence polarization; activity change, negative = inhibition: at 115 µM (top of the series)
# How it was run: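 Steps: dispense CXXC domain solution (7 uM) → pin compounds or unlabeled HOX-A9 DNA control → 5 min ambient → add FLSN-HOX-A9 solution (50 nM) → spin → 30 min ambient → fluorescence polarization. Tris pH 7.5/NaCl/DTT/BSA buffer.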
# Potency is read from the fitted curve at half-maximal effect.
SMILES,Potency,"activity change, negative = inhibition"
CC(CO)(CO)NC(=O)c1ccc(=O)[nH]n1,"inconclusive: 1.12 µM [fluorescent, side channel, partial curve, poor fit]",–
O=S(=O)(c1ccc(N2CCC(c3ccc(Cl)cc3)=N2)cc1)N(CCO)CCO,–,inactive: 2.39%
CCN(CC)S(=O)(=O)c1ccc(C(=O)/C=C/c2ccc(-c3ccc([N+](=O)[O-])cc3)o2)cc1,"inconclusive: 50.1 µM [fluorescent, side channel, single point]",–
O=C(CSc1nnc(-c2cccnc2)n1CCN1CCCCC1)Nc1cccc(Cl)c1,–,inactive: -2.29%
COCCN=C1NN=C(c2ccc(NC(C)=O)cc2)CS1,"inconclusive: 39.8 µM [fluorescent, side channel, single point]",–
COc1cccc(OC)c1C(=O)Nc1ccccc1C(=O)N1CCCCCC1,"inconclusive: 10 µM [fluorescent, side channel, single point]",–
CCc1ccc(CNC(=O)C2CCN(S(=O)(=O)N3CC(C)CC(C)C3)CC2)cc1 (configuration not stated),"inconclusive: 7.94 µM [quencher, side channel, single point]",–
CCN(CC)c1ccc(NC(=O)c2ccc3c(c2)OCO3)cc1,"inconclusive: 11.2 µM [quencher, side channel, single point]",–
COc1cccc2cc(CC(=O)c3ccc(C)cc3C)c(=O)oc12,"inconclusive: 15.8 µM [fluorescent, side channel, partial curve]",–
Cc1ccc(-n2c3nc(=O)n(C)c(=O)c-3cc3ccccc32)cc1,"inconclusive: 89.1 µM [inhibitor, single point]",–
CN(CC(=O)Nc1cccc(F)c1)CC(=O)Nc1cccc(S(N)(=O)=O)c1,"inconclusive: 89.1 µM [inhibitor, single point]",–
CCc1nnc(NC(=O)/C=C/c2ccc(C)o2)s1,"inconclusive: 1.41 µM [fluorescent, side channel, full curve, poor fit]",–
CC(C)Nc1ccc(Nc2ccnc3cc4ccccc4cc23)cc1,"inconclusive: 25.1 µM [quencher, side channel, partial curve]",–
Cc1ccc(NS(=O)(=O)c2cccc(C(=O)NCC(c3ccco3)N3CCCCC3)c2)cc1 (configuration not stated),"inconclusive: 15.8 µM [quencher, side channel, full curve, poor fit]",–
Nc1cc(Cl)ccc1N1C(=O)CCC1=O,"inconclusive: 14.1 µM [inhibitor, single point]",–
COc1ccc(-c2c[n+]3c4n2CCCCC4=C(c2ccc(Br)cc2)C3)cc1,"inconclusive: 31.6 µM [quencher, side channel, single point]",–
Cc1cccc2c(C(=O)N3CCN(c4ccccn4)CC3)cc(-c3cccc(Br)c3)nc12,"inconclusive: 35.5 µM [fluorescent, side channel, partial curve]",–
O=C(N/N=C/c1cccc2ccccc12)c1cccc(F)c1,"inconclusive: 12.6 µM [fluorescent, side channel, single point]",–
Cc1cc(C)c2[nH]c(C(=O)N3CCC(n4nccc4NC(=O)C4CC4)CC3)c(C)c2c1,–,inactive: -2.92%

SMILES,Potency,"activity change, negative = inhibition"
Cc1ccccc1NC(=O)NNC(=O)c1ccc2ccccc2c1O,"inconclusive: 14.1 µM [quencher, side channel, single point]",–
Cc1ccc(S(=O)(=O)NC(=O)COc2ccc([N+](=O)[O-])cc2)cc1,"inconclusive: 15.8 µM [quencher, side channel, single point]",–
N[C@@H](Cc1cc(I)c(O)c(I)c1)C(=O)O,–,inactive: 6.92%
CC(=O)Nc1ccc(Nc2c3ccccc3nc3ccccc23)cc1,"inconclusive: 44.7 µM [quencher, side channel, partial curve]",–
COC1=C/C(=C/c2c(N)n3c(nc2=O)sc2cc(S(C)(=O)=O)ccc23)C=CC1=O,"inconclusive: 17.8 µM [fluorescent, side channel, partial curve]",–
CN1CCN(CCCNC(=O)c2ccc(/C=C3/Sc4ccccc4N(Cc4cccc(Cl)c4)C3=O)cc2)CC1,"inconclusive: 25.1 µM [quencher, side channel, partial curve]",–
COc1ccccc1CCNCc1ccc(OC)c(OCc2ccccc2)c1,"inconclusive: 3.55 µM [quencher, side channel, full curve, poor fit]",–
CCOc1cc(/C=C2/C(=N)N3N=C(CC)SC3=NC2=O)ccc1OC(=O)c1ccco1,–,inconclusive: 10.4% [phenotype inactive]
CC(C)(O)C(=O)N/N=C\c1ccc(OC/C=C/c2ccccc2)cc1,"inconclusive: 11.2 µM [quencher, side channel, full curve, poor fit]",–
Cc1nc(S/C(=C/c2ccc(-c3ccc(C(=O)O)cc3)o2)C(=O)O)n[nH]1,"inconclusive: 35.5 µM [fluorescent, side channel, partial curve]",–
O=C(Nc1ccccc1F)c1cccc(C(=O)Nc2ccccc2F)c1,"inconclusive: 89.1 µM [fluorescent, side channel, single point]",–
CCOC(=O)CSc1nc2c(c(=O)[nH]1)C(C)(CC)Cc1ccccc1-2 (configuration not stated),"inconclusive: 14.1 µM [fluorescent, side channel, single point]",–
CC(C)n1c(SCC(=O)NCc2ccco2)nnc1C1CC1,"inconclusive: 10 µM [fluorescent, side channel, full curve]",–
Cc1ccnc(NS(=O)(=O)c2ccc(NC(=O)C34CC5CC(C)(CC(C)(C5)C3)C4)cc2)n1,"inconclusive: 14.1 µM [fluorescent, side channel, full curve]",–
COc1ccc(/C=C/C(=O)c2c(O)cc(C)oc2=O)c(OC)c1,"inconclusive: 56.2 µM [fluorescent, side channel, single point]",–
Cc1cccc(C)c1NC(=O)C1(NC(=O)Cn2cccc([N+](=O)[O-])c2=O)CCCCC1,"inconclusive: 14.1 µM [inhibitor, single point]",–
CC1=CCC2C(=O)N(c3cccc(C(=O)Nc4ccccc4Cl)c3)C(=O)C2C1 (configuration not stated),"inconclusive: 89.1 µM [quencher, side channel, single point]",–
O=C(CN1C(=O)CCC1=O)Nc1nc(-c2ccc3ccccc3c2)cs1,–,inactive: -3.57%
CC(C(=O)Nc1ccc(S(=O)(=O)N2CCOCC2)cc1)N1C(=O)C2CC=CCC2C1=O (configuration not stated),"inconclusive: 35.5 µM [fluorescent, side channel, partial curve, poor fit]",–

SMILES,Potency,"activity change, negative = inhibition"
CCCCOc1ccc(/C=C/C(=O)OCC(=O)c2c(N)n(C)c(=O)n(C)c2=O)cc1OCC,–,inactive: 7.36%
CCN1CCCC1CN(Cc1cc2ccc(C)cc2[nH]c1=O)C(=S)Nc1cccc(OC)c1 (configuration not stated),"inconclusive: 14.1 µM [inhibitor, single point]",–
Cc1cc(CNC(=O)C2CCC(=O)N(CCc3ccc(Cl)cc3)C2)no1 (configuration not stated),"inconclusive: 14.1 µM [fluorescent, side channel, single point]",–
Cc1ccc(NCC(=O)N=Nc2c(O)[nH]c3ccc([N+](=O)[O-])cc23)cc1,–,inactive: -2.3%
O=C(NCc1ccccn1)C1CC(c2ccc(F)cc2)=NO1 (configuration not stated),–,inactive: 37.5%
OCC1OC([S-])[C@H](O)C(O)C1O.[Au+] (some centres not stated),–,inactive: -10.5%
CC(C)(C)OC(=O)NC1CC2CCCC(C1)N2Cc1ccccc1 (configuration not stated),"inconclusive: 1 µM [fluorescent, side channel, full curve, poor fit]",–
Cn1c(=O)c2c(ncn2CCC(=O)N/N=C/c2ccccc2)n(C)c1=O,"inconclusive: 1.12 µM [quencher, side channel, full curve]",–
COc1ccccc1NS(=O)(=O)c1cccc(C(=O)N2CCN(C/C=C/c3ccccc3)CC2)c1,"inconclusive: 35.5 µM [fluorescent, side channel, partial curve]",–
COc1ccc(-c2cnnc(N/N=C/c3ccc(OC)c(OC)c3)n2)cc1,"inconclusive: 79.4 µM [fluorescent, side channel, single point]",–
COC(=O)C1=C(C)N(Cc2ccccc2)C(=NCC2CC2)N[C@H]1c1ccc(Br)cc1,"inconclusive: 15.8 µM [quencher, side channel, full curve]",–
COc1ccc(C(=O)NCC(=O)N/N=C/c2cccc(OC(=O)c3ccco3)c2)cc1OC,–,inactive: 137%
S=C(Nc1ccc2nccnc2c1)N1CCCC1,"inconclusive: 39.8 µM [inhibitor, single point]",–
CCN1C(=NCCc2cccs2)N[C@@H](CCc2ccccc2)[C@H](C(=O)NCCc2cccs2)[C@H]1C,"inconclusive: 25.1 µM [quencher, side channel, partial curve]",–
CN(CCO)c1ccc(/C=N/Nc2nncc3ccccc23)cc1,"inconclusive: 31.6 µM [fluorescent, side channel, partial curve]",–
OCCNC(=S)Nc1ccc(Oc2ccccc2)cc1,"inconclusive: 35.5 µM [fluorescent, side channel, partial curve]",–
COP(=O)(OC)OC(c1ccc(Cl)cc1)P(=O)(OC)OC (configuration not stated),–,inactive: 4.97%
Cc1ccc(NS(=O)(=O)c2ccc(Cl)s2)nc1,"inconclusive: 2.51 µM [fluorescent, side channel, full curve]",–
CCOC(=O)c1ccc(NC(=O)c2nc[nH]c2C(=O)NC)cc1,"inconclusive: 35.5 µM [inhibitor, single point]",–

# 2 records picked at random from the list so far:
SMILES,Potency,"activity change, negative = inhibition"
COc1ccc(C(=O)NCC(=O)N/N=C/c2cccc(OC(=O)c3ccco3)c2)cc1OC,–,inactive: 137%
OCC1OC([S-])[C@H](O)C(O)C1O.[Au+] (some centres not stated),–,inactive: -10.5%
